# Reference: patent US7851473B2, “Amide compound” (Takeda Pharmaceutical Company Limited, priority 2004, dated 2010)
# Some entries share one result that the patent states for a list of compounds.
# Test system: rat
# Assay: Test of sleep action (measurement of EEG and EMG)
# Type: in vivo
# Conditions: 10 mg/kg orally, during 6 hours after the administration
row,Structure (SMILES),total wake time (wake time of solvent control group taken as 100%) [%]
1,"O=C(Nc1cnccn1)N1CCN(c2nc(-c3ccccc3)ns2)CC1 [Example 148, 4-(3-Phenyl-1,2,4-thiadiazol-5-yl)-N-pyrazin-2-ylpiperazine-1-carboxamide]",≤ 90
2,"O=C(Nc1cccnc1)N1CCN(c2nc(-c3cccc(F)c3)cs2)CC1 [Example 217, 4-[4-(3-Fluorophenyl)-1,3-thiazol-2-yl]-N-pyridin-3-ylpiperazine-1-carboxamide]",≤ 90
3,"O=C(Nc1cccnc1)N1CCN(c2nc(-c3ccccc3)cs2)CC1 [Example 94, 4-(4-Phenyl-1,3-thiazol-2-yl)-N-pyridin-3-ylpiperazine-1-carboxamide]",≤ 90
4,"O=C(Nc1cnccn1)N1CCN(c2nc(-c3ccccc3)cs2)CC1 [Example 166, 4-(4-Phenyl-1,3-thiazol-2-yl)-N-pyrazin-2-ylpiperazine-1-carboxamide]",≤ 90
5,"Cc1noc(NC(=O)N2CCN(c3nc(-c4ccccc4)cs3)CC2)c1C [Example 198, N-(3,4-Dimethylisoxazol-5-yl)-4-(4-phenyl-1,3-thiazol-2-yl)piperazine-1-carboxamide]",≤ 90
6,"O=C(Nc1cccnn1)N1CCN(c2nc(-c3ccccc3)ns2)CC1 [Example 147, 4-(3-Phenyl-1,2,4-thiadiazol-5-yl)-N-pyridazin-3-ylpiperazine-1-carboxamide]",≤ 90
